This is an account of results in article PMC11733299.

These are yes or no findings as the source states them, for the method shown. Some binding calls cover weakened binding; strength is not graded here.

Holding throughout (assay): two-hybrid; classical GAL4 system; CNGC N and C termini in pGBK-T7, CPK1 in pGAD-T7; yeast AH109; growth on SD/-Leu-Trp-His-Ade
Substrate in assay [1]: T1, C terminus of CNGC14 (aa411-726) in pGBK-T7 (Arabidopsis thaliana) (UniProt Q9SJA4)
T1 sequence: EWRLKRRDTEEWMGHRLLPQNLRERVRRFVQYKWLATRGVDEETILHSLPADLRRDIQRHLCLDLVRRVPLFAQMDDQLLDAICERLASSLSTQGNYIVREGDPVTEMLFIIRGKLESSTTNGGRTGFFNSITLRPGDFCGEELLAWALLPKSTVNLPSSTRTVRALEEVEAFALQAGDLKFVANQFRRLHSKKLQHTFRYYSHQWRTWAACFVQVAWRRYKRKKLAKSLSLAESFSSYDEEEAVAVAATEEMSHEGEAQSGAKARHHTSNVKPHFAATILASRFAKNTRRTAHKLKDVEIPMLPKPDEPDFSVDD

Assay [2] has as its target T2, CNGC9-N (aa1-117) in pGBK-T7 (Arabidopsis thaliana) (UniProt Q9M0A4).
T2 sequence: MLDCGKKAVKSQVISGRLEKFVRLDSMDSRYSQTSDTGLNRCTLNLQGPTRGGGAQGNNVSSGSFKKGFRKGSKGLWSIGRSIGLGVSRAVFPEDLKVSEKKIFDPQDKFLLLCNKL

Assay [3] addresses T3, CNGC6-N (aa1-116) in pGBK-T7 (Arabidopsis thaliana) (UniProt O82226).
T3 sequence: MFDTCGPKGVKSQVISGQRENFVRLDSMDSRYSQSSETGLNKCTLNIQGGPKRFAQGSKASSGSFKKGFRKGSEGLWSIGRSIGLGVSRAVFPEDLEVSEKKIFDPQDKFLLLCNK

For assay [4], the target named is T4, CNGC6-C (aa429-747) in pGBK-T7 (Arabidopsis thaliana) (UniProt O82226).
T4 sequence: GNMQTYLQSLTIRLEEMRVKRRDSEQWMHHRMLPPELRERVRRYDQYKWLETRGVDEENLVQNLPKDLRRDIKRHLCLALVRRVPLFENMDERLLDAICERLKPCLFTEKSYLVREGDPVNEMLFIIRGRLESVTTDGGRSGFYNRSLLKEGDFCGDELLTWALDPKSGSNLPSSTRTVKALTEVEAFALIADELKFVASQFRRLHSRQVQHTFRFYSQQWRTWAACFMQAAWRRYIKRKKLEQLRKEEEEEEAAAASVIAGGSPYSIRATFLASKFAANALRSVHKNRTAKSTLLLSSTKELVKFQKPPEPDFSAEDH

Assay [5] concerns the target T5, CNGC5-N (aa1-102) in pGBK-T7 (Arabidopsis thaliana) (UniProt Q8RWS9).
T5 sequence: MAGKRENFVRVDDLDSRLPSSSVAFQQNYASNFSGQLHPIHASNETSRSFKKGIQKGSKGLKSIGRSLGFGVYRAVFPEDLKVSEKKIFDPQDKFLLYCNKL

Assay [6] deals with T6, CNGC5-C (aa413-717) in pGBK-T7 (Arabidopsis thaliana) (UniProt Q8RWS9).
T6 sequence: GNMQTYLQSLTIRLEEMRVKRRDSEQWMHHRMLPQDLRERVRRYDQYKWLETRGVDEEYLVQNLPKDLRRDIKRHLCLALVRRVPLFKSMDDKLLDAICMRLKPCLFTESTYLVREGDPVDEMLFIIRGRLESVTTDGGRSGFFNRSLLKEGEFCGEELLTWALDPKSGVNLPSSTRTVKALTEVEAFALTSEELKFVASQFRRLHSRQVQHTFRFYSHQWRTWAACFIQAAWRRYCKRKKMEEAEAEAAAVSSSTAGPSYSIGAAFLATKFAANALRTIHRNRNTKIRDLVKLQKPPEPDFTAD

Assay [7] addresses T7, CNGC14-N (aa1-101) in pGBK-T7 (Arabidopsis thaliana) (UniProt Q9SJA4).
T7 sequence: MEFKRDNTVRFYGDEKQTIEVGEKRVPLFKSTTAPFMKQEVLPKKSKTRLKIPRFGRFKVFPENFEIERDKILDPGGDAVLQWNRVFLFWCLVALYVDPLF

The target of assay [8] is T8, CNGC9-C (aa428-733) in pGBK-T7 (Arabidopsis thaliana) (UniProt Q9M0A4).
T8 sequence: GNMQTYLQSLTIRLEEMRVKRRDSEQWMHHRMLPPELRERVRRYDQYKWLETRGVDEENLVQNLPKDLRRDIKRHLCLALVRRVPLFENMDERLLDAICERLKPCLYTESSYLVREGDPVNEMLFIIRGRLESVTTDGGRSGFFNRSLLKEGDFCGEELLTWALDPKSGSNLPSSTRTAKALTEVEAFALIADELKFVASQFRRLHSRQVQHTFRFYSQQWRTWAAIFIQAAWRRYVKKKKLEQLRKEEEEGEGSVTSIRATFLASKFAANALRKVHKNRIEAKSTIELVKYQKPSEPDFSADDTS

B1: CPK1 in pGAD-T7 (enzyme, UniProt Q06850 1-610)
chain: MGNTCVGPSRNGFLQSVSAAMWRPRDGDDSASMSNGDIASEAVSGELRSRLSDEVQNKPPEQVTMPKPGTDVETKDREIRTESKPETLEEISLESKPETKQETKSETKPESKPDPPAKPKKPKHMKRVSSAGLRTESVLQRKTENFKEFYSLGRKLGQGQFGTTFLCVEKTTGKEFACKSIAKRKLLTDEDVEDVRREIQIMHHLAGHPNVISIKGAYEDVVAVHLVMECCAGGELFDRIIQRGHYTERKAAELTRTIVGVVEACHSLGVMHRDLKPENFLFVSKHEDSLLKTIDFGLSMFFKPDDVFTDVVGSPYYVAPEVLRKRYGPEADVWSAGVIVYILLSGVPPFWAETEQGIFEQVLHGDLDFSSDPWPSISESAKDLVRKMLVRDPKKRLTAHQVLCHPWVQVDGVAPDKPLDSAVLSRMKQFSAMNKFKKMALRVIAESLSEEEIAGLKEMFNMIDADKSGQITFEELKAGLKRVGANLKESEILDLMQAADVDNSGTIDYKEFIAATLHLNKIEREDHLFAAFTYFDKDGSGYITPDELQQACEEFGVEDVRIEELMRDVDQDNDGRIDYNEFVAMMQKGSITGGPVKMGLEKSFSIALKL
On to B1, for which the binding entry in assay [1] was “no binding”; in assay [2], “binds”; in assay [3], “binds”; in assay [4] it was “no binding”; in assay [5], “binds”; in assay [6] it was “no binding”. The binding entry in assay [7] and in assay [8] was “no binding” throughout.
